Some entries share one result that the patent states for a list of compounds.
System: K562/C1000, a human multidrug resistant cancer cell line
Test: MDR in vitro test: sensitization of K562/C1000 cell growth to a classic cytostatic
Type: cell-based
Conditions: classic cytostatic e.g. vinblastine, fixed concentration 10^−6 M of compound

In the case of `COC(=O)c1cnc2n1CCc1ccccc1C2=C1CCN(CCc2ccc(OCc3ccc4ccccc4n3)cc2)CC1` [Compound 6, methyl 6,11-dihydro-11-[1-[2-[4-(2-quinolinylmethoxy)phenyl]ethyl]-4-piperidinylidene]-5H-imidazo[2,1-b][3]-benzazepine-3-carboxylate], the “SR (sensitization ratio, IC50(cytostatic) over IC50(cytostatic/compound))” value is reported as at least 5.
